Measured values: PMC6081406 (Nature Communications, 2018)

Key:
[1] = biological target: E domain of gephyrin (GephE, AA 318-736); assay: native gel or EMSA; NAGE; GephE alone or with CB-SH3; GephE with a fivefold molar excess of α2L and increasing amounts of the SH3 domain; both purified
[2] = biological target: GABAAR α3 subunit large cytoplasmic loop (AA 392-406); assay: condition: threefold excess of GABAAR intracellular domains; native gel or EMSA; native agarose gel electrophoresis (NAGE), Coomassie staining; CB-SH3 alone or mixed with a threefold excess of GABAAR intracellular domains; both purified
[3] = biological target: GABAAR α3 subunit large cytoplasmic loop (AA 392-406); assay: SEC; analytical size exclusion chromatography; single proteins or equimolar mixtures of the SH3 domain with α1L, α2L or α3L; fractions analysed by SDS-PAGE; both purified
[4] = biological target: first half of the GABAAR α2 large intracellular loop; assay: ITC; CB-SH3 titrated against the receptor loops and truncated constructs; both purified
[5] = biological target: GABAAR α3 subunit large cytoplasmic loop (AA 392-406); assay: as above

B1: SH3 domain of collybistin (CB-SH3) (domain or fragment, murine, UniProt Q3UTH8 4-72, looked up)
chain: LITGDSIVSAEAVWDHVTMANRELAFKAGDVIKVLDASNKDWWWGQIDDEEGWFPASFVRLWVNQEDGV
notes: collybistin CB1, murine, residues 4-72, encompassing the complete SH3 domain (residues 8-67); pGEX construct provided by T. Soykan (Brose lab); source: E. coli, purified (GST tag, in-situ thrombin cleavage, Superdex 200 SEC); not shown: GST, N-terminal, cleaved
binding [1]: no binding
binding [2]: no binding
binding [3]: no binding (tested: equimolar mixtures)
binding [4]: binds
binding [5]: no binding (tested: >500 μM)

These are yes or no findings as the source states them, for the method shown. For some assays here: Binding can be weak; no strength is given.
